According to article PMC5630373:
No constants are given. Whether binding was seen depends on the method and setting. In cells and extracts the contact can be indirect. Some results given as binding are weak or reduced against the parent protein; the word gives no strength.

The chains behind the UniProt entries cited, without tags or fusion partners.
UniProt Q04206: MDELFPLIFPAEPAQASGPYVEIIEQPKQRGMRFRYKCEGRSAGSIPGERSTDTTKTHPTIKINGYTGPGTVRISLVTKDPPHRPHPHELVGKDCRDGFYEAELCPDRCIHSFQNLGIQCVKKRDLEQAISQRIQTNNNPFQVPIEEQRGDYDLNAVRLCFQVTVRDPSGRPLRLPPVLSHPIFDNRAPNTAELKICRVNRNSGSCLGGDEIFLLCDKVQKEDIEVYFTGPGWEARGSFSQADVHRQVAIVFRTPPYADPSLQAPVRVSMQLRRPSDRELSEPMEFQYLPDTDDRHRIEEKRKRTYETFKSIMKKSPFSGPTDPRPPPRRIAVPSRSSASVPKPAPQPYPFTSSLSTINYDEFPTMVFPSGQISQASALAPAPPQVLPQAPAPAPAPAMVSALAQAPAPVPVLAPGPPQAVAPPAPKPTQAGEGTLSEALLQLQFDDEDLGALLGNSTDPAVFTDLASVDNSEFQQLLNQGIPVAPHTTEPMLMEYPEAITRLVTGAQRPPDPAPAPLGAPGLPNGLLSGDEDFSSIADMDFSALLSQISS

Molecular target: NF-κB p65 (human (endogenous in HaCaT)) (UniProt Q04206)
Assay: co-IP; IP with an anti-p65 antibody (1:100) from RIPA lysates of confluent α-catenin-knockdown HaCaT cells (compared with cells without the knockdown), pre-cleared, overnight at 4°C, protein A/G beads; blotted with an NBPF antibody and an NBPF7-specific antibody

B1: NBPF7 (neuroblastoma breakpoint family member 7) (protein, UniProt P0C2Y1 1-421)
chain: MCLRFFSPVPGSTSSATNVTMVVSAGPWSSEKAEMNILEINEKLRPQLAENKQQFRNMKQKFLVTQMAGFLANQQNKYKYEECKDLIKSMLREELQFKEEKLAEQLKQAEELRQYKVLVHSQERELIQLREKLREGRDASHSLNQHLQALLTPDKHDNSQGQDFREQLAEGCRLARHLVHKLSPENDTDEDENDKTKELDKVQESPAPREEQKAEEKEVPEDSLEECAITYSNSHGPSDSNPPHKNIKITSEEDKVNSILVVDSESSQDEWQDALNILLENQNDDEEEEGKAPVPPQVTLWICGLKLQESEEKEVLQDSPEERVTTSCSDHDVSQSYQPCEGTFLALVEQKVCSAQDVASEHSNSKGEETPLGFPDTKYCWKDEKDERMSQKVAFLLDEKNYNSKPSSIPNTTLQGSFTED
With B1 as the binder, how does the binding read?
The binding was “binds”.
